These are yes or no findings as the source states them, for the method shown. Binding seen in cells or lysates may run through a third protein. Some binding calls cover weakened binding; strength is not graded here.
Experiments:
[1] = target: T1, p52 (NF-kappaB p52; endogenous, mouse lung tissue) (mouse) (UniProt Q9WTK5); assay: co-immunoprecipitation from mouse lung, densitometry of blots (FIG. 2B)
T1 sequence (looked up): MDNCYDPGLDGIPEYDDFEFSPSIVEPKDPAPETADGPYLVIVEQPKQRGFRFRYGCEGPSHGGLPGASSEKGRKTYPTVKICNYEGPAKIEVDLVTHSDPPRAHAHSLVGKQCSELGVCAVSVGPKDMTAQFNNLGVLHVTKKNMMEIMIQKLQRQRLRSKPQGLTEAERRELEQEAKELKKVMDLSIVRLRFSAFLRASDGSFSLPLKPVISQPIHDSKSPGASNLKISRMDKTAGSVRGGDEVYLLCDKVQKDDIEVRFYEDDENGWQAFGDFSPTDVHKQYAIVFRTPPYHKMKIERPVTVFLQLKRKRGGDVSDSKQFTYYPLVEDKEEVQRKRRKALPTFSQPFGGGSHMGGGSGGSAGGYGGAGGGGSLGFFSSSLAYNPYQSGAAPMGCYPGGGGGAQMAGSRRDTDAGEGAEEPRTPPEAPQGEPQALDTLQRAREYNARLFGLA

[2] = target: T1, p52 (NF-kappaB p52; endogenous, mouse lung tissue) (mouse); assay: co-immunoprecipitation from mouse whole lung tissue homogenate, Western blot
[3] = target: T1, p52 (NF-kappaB p52; endogenous, mouse lung tissue) (mouse); assay: co-immunoprecipitation from mouse lung (discussion of own results)

Measured: binding

B1: RelB (endogenous, mouse lung tissue) (protein, UniProt Q04863 1-558, looked up)
chain: MPSRRAARESAPELGALGSSDLSSLSLTVSRTTDELEIIDEYIKENGFGLDGTQLSEMPRLVPRGPASLSSVTLGPAAPPPPATPSWSCTLGRLVSPGPCPRPYLVITEQPKQRGMRFRYECEGRSAGSILGESSTEASKTLPAIELRDCGGLREVEVTACLVWKDWPHRVHPHSLVGKDCTDGVCRVRLRPHVSPRHSFNNLGIQCVRKKEIEAAIERKIQLGIDPYNAGSLKNHQEVDMNVVRICFQASYRDQQGHLHRMDPILSEPVYDKKSTNTSELRICRINKESGPCTGGEELYLLCDKVQKEDISVVFSTASWEGRADFSQADVHRQIAIVFKTPPYEDLEISEPVTVNVFLQRLTDGVCSEPLPFTYLPRDHDSYGVDKKRKRGLPDVLGELSSSDPHGIESKRRKKKPVFLDHFLPGHSSGLFLPPSALQPADSDFFPASISLPGLEPPGGPDLLDDGFAYDPSAPTLFTMLDLLPPAPPLASAVVGSGGAGATVVESSGPEPLSLDSFAAPGPGDVGTASLVGSNMFPNQYREAAFGGGLLSPGPEAT
binds: all assays above

Source: patent US20120183524A1, “MOLECULAR TARGETS FOR TREATMENT OF INFLAMMATION” (University Of Rochester, priority 2007, published 2012)
